No constants are given. Whether binding was seen depends on the method and setting. Some binding calls cover weakened binding; strength is not graded here. For some of these results: Tags and fused reporters may be left off the sequences shown.
Legend:
[1] = molecular target: T1, 35S-labeled TRAF1 (murine) (UniProt P39428); experiment: in vitro binding assay (FIG. 2)
T1 sequence (35S-labeled (in vitro translated, TNT coupled reticulocyte lysate), looked up): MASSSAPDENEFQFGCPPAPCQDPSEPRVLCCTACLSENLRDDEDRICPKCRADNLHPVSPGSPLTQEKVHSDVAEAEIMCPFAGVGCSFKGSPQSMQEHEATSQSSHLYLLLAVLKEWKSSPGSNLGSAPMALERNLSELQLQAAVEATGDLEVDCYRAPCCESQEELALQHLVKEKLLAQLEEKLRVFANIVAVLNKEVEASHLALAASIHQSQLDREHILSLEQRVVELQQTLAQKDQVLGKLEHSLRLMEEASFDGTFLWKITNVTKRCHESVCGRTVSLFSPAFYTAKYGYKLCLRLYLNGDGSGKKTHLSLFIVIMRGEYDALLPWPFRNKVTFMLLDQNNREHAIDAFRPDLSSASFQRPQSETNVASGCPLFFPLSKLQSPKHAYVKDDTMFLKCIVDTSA

Protein sequences, listed by entry. Tags and fused reporters are not part of them. Lines headed by an entry give the natural chain unless they say otherwise; changes in a name come on top.
UniProt P04386: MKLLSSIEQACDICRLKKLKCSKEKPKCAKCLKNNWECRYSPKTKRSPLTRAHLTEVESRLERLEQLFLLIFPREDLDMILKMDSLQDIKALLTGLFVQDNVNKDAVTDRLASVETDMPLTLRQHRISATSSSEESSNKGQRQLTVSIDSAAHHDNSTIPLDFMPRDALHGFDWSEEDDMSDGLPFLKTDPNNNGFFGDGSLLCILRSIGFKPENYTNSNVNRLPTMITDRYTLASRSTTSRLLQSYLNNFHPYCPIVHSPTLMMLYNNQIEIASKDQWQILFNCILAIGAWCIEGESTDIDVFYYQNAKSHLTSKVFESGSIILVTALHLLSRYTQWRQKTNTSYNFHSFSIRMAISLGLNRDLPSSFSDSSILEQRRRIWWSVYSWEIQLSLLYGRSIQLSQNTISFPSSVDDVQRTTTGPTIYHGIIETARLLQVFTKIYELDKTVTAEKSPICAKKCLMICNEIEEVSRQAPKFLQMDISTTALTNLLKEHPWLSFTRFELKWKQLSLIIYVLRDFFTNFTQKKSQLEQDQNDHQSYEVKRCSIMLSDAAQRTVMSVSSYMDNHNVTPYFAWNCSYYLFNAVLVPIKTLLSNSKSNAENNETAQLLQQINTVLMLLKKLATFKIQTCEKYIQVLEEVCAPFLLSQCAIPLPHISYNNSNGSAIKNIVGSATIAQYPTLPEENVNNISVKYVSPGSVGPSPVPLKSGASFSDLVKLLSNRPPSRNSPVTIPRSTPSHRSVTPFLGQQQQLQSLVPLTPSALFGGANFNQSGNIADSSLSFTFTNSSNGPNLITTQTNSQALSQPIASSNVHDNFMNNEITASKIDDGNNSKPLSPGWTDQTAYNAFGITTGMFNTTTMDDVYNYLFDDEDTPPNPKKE

[2] = molecular target: T2, 35S-labeled TRAF2 (murine) (UniProt P39429); experiment: in vitro binding assay (FIG. 2)
T2 sequence (35S-labeled (in vitro translated, TNT coupled reticulocyte lysate), looked up): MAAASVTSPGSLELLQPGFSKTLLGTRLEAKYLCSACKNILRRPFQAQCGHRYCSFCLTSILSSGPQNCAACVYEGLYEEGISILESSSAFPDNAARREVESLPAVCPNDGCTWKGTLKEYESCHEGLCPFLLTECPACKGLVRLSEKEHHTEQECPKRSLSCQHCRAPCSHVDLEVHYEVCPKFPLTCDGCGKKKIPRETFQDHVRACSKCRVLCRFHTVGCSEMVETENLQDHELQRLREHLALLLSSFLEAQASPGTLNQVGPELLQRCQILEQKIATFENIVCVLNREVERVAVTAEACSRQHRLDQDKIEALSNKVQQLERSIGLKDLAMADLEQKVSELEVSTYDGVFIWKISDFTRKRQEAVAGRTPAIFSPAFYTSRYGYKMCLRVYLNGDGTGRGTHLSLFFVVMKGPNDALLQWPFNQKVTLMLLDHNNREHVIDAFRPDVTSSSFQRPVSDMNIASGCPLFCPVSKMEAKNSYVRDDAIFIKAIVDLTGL

[3] = molecular target: T1, 35S-labeled TRAF1 (murine); experiment: in vitro binding (GST pull-down of 35S-labeled protein)
[4] = molecular target: T2, 35S-labeled TRAF2 (murine); experiment: as above
[5] = molecular target: T1, 35S-labeled TRAF1 (murine); experiment: in vitro binding: GST-I-TRAF on glutathione Sepharose beads, 35S-labeled protein, SDS-PAGE and autoradiography
[6] = molecular target: T2, 35S-labeled TRAF2 (murine); experiment: as above
[7] = molecular target: full length TRAF2 in the GAL4 DNA-binding domain vector pPC97 (yeast; murine) (UniProt P04386+P39429); experiment: yeast two-hybrid screening, TRAF2 as bait

Measured: binding

B1: I-TRAFα expressed as a glutathione-S-transferase (GST) fusion protein (protein, not shown: a dimerising Fc or GST)
chain: MDKNIGEQLNRAYEAFRQACMDRDSAVRELQQKTENYEQRIREQQEQLSFQQNLIDRLKSQLLLVDSSRDNSYGYVPLLEDSDRRKNNLTLDEPHDKVKLGTLRDKQSKVRRQEVSSGKESAKGLNIPLHHERDNIEKTFWDLKEEFHRICLLAKAQKDHLSKLNIPDIATDTQCSVPIQCTDKTEKQEALFKPQAKDDINRGMSCVTAVTPRGLGRDEEDTSFESLSKFNVKFPPMDNDSIFLHSTPEAPSILAPATPETVCQDRFNMEVRDNPGNFVKTEETLFEIQGIDPITSAIQNLKTTDKTNPSNLRATCLPAGDHNVFYVNTFPLQDPPDAPFPSLDSPGKAVRGPQQPFWKPFLNQDTDLVVPSDSDSELLKPLVCEFCQELFPPSITSRGDFLRHLNTHFNGET
not listed: [7]
binds: all other assays above

B2: N-terminal portion of murine I-TRAF (amino acids 35-236), as GAL4 activation domain library clone (protein, not shown: large carriers)
chain: ENYEQRIREQQEQLSFQQNLIDRLKSQLLLVDSSRDNSYGYVPLLEDSDRRKNNLTLDEPHDKVKLGTLRDKQSKVRRQEVSSGKESAKGLNIPLHHERDNIEKTFWDLKEEFHRICLLAKAQKDHLSKLNIPDIATDTQCSVPIQCTDKTEKQEALFKPQAKDDINRGMSCVTAVTPRGLGRDEEDTSFESLSKFNVKFPP
binds: [7]

Source: US20040087774A1
